Protein sequences, listed by entry. Tags and fused reporters are not part of them. Residues count along the entry.
UniProt P11940: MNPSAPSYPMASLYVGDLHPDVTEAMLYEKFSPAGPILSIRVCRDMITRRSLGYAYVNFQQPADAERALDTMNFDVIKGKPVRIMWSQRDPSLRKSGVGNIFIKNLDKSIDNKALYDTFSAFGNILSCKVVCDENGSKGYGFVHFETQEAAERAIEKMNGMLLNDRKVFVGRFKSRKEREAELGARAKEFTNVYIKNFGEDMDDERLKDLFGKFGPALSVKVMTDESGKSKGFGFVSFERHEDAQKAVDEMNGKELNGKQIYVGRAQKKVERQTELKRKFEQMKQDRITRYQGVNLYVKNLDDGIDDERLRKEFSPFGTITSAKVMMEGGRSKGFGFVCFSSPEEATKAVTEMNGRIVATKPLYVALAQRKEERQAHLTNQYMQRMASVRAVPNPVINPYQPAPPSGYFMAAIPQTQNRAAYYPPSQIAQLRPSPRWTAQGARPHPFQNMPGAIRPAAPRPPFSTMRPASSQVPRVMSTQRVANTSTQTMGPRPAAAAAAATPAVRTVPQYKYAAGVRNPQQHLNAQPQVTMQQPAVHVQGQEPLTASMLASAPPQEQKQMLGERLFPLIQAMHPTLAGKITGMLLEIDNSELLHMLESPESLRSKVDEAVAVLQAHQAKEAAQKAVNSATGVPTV
UniProt Q5VTE0: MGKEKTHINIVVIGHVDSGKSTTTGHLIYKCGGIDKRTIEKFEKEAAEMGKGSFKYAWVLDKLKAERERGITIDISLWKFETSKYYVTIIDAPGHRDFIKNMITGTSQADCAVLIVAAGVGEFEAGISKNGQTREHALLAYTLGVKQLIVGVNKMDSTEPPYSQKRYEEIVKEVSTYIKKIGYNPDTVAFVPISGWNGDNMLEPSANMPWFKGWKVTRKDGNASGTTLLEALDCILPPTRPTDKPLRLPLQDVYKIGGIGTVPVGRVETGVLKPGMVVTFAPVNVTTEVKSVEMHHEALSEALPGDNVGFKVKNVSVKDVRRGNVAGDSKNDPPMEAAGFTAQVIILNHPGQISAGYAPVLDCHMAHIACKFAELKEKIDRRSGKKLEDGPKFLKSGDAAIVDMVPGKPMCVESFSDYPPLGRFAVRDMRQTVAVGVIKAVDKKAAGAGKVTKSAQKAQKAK
UniProt P11142: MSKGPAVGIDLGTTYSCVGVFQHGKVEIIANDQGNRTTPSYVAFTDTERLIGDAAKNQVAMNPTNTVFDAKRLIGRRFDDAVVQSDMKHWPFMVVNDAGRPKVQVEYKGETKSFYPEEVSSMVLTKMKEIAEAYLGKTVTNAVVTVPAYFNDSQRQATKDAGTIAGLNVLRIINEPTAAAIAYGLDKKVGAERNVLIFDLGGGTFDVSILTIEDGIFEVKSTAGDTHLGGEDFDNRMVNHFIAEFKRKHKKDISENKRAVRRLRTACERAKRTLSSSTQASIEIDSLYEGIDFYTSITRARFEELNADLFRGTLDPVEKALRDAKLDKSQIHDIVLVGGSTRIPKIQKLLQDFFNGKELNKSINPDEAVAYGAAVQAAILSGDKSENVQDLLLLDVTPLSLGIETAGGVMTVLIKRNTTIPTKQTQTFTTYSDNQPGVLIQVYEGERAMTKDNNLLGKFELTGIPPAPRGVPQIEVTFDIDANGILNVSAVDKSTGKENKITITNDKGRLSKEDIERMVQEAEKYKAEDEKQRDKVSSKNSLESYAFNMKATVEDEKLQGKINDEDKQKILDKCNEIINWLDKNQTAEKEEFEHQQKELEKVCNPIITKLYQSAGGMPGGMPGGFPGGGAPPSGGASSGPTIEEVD
UniProt P10809, residues 27-573: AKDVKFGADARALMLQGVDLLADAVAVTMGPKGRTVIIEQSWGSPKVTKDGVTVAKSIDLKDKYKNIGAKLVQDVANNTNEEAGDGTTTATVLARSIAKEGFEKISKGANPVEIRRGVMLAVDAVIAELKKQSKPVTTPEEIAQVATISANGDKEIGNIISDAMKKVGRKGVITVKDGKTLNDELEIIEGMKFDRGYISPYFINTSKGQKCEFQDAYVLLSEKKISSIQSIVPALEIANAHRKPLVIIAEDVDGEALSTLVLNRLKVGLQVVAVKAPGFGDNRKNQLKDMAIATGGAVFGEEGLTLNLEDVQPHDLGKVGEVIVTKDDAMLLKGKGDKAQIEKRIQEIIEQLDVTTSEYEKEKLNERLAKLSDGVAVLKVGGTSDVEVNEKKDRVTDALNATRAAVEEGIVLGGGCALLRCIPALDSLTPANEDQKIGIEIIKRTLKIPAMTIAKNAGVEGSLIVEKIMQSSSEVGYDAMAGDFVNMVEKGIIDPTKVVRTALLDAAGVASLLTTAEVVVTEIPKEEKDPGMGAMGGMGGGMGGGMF
UniProt P00441: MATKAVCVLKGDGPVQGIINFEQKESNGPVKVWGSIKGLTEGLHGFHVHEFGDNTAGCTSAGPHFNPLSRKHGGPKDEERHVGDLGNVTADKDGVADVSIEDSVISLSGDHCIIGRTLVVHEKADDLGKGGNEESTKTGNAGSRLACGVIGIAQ
UniProt Q32P51: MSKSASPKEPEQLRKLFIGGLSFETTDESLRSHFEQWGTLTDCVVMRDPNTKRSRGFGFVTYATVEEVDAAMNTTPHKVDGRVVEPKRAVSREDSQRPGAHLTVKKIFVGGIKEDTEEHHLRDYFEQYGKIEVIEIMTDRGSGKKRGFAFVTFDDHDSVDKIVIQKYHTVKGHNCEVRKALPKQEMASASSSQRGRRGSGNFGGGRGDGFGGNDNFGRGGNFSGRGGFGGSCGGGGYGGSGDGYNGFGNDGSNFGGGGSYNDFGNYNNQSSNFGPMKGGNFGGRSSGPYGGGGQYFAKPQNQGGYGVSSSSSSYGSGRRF
UniProt P04406: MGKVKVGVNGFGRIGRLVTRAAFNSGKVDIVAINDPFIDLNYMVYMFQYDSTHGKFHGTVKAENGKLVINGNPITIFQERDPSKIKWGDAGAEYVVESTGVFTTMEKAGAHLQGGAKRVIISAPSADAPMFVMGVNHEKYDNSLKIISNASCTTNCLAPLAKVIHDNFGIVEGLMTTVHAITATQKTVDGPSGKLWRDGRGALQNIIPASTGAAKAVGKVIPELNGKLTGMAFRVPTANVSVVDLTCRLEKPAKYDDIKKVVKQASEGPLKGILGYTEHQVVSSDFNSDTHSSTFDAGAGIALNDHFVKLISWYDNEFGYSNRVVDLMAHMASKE

According to publication PMC5886150:

What was measured:
DJ-1 C106DD = DJ-1 C106DD (UniProt Q99497); test: affinity purification with mass spectrometry; DJ-1 HMW complexes from KD1 cells expressing DJ-1 C106A or DJ-1 C106DD, compared by the same LC-MS/MS technique (fold change C106DD/C106A)
DJ-1 C106A = DJ-1 C106A (UniProt Q99497); test: as above
[1] = target: DJ-1 (endogenous, SH-SY5Y cells) (human (endogenous in SH-SY5Y)) (UniProt Q99497); test: affinity purification with mass spectrometry; polyclonal goat anti DJ-1 antibody covalently linked to Dynabeads M-270 Epoxy; SH-SY5Y lysate (1% NP40, 150 mM sodium chloride, pH 7.5) concentrated on 100 K filters to remove proteins less than 100 kDa; 1 h at 4 °C; label-free quantitative LC-MS/MS

Row | binding (DJ-1 C106DD) | binding (DJ-1 C106A) | binding [1] | Molecule
1 | binds | binds | – | polyadenylate-binding protein 1 (from UniProt P11940 1-636)
2 | – | – | binds | putative elongation factor 1 alpha like 3 (from UniProt Q5VTE0 1-462)
3 | binds | binds | – | hsc70 (from UniProt P11142 1-646)
4 | – | – | binds | Hsp60 (from UniProt P10809 27-573)
5 | – | – | binds | SOD1 (from UniProt P00441 1-154)
6 | – | – | binds | splicing regulatory glutamine lysine rich protein 1 (protein, UniProt Q8WXA9 1-508) MTSLMPGAGLLPIPTPNPLTTLGVSLSSLGAIPAAALDPNIATLGEIPQPPLMGNVDPSKIDEIRRTVYVGNLNSQTTTADQLLEFFKQVGEVKFVRMAGDETQPTRFAFVEFADQNSVPRALAFNGVMFGDRPLKINHSNNAIVKPPEMTPQAAAKELEEVMKRVREAQSFISAAIEPESGKSNERKGGRSRSHTRSKSRSSSKSHSRRKRSQSKHRSRSHNRSRSRQKDRRRSKSPHKKRSKSRERRKSRSRSHSRDKRKDTREKIKEKERVKEKDREKEREREKEREKEKERGKNKDRDKEREKDREKDKEKDREREREKEHEKDRDKEKEKEQDKEKEREKDRSKEIDEKRKKDKKSRTPPRSYNASRRSRSSSRERRRRRSRSSSRSPRTSKTIKRKSSRSPSPRSRNKKDKKREKERDHISERRERERSTSMRKSSNDRDGKEKLEKNSTSLKEKEHNKEPDSSVSKEVDDKDAPRTEENKIQHNGNCQLNEENLSTKTEAV
7 | binds | binds | – | hnRNP A0 (protein, UniProt Q13151 1-305) MENSQLCKLFIGGLNVQTSESGLRGHFEAFGTLTDCVVVVNPQTKRSRCFGFVTYSNVEEADAAMAASPHAVDGNTVELKRAVSREDSARPGAHAKVKKLFVGGLKGDVAEGDLIEHFSQFGTVEKAEIIADKQSGKKRGFGFVYFQNHDAADKAAVVKFHPIQGHRVEVKKAVPKEDIYSGGGGGGSRSSRGGRGGRGRGGGRDQNGLSKGGGGGYNSYGGYGGGGGGGYNAYGGGGGGSSYGGSDYGNGFGGFGSYSQHQSSYGPMKSGGGGGGGGSSWGGRSNSGPYRGGYGGGGGYGGSSF

Further lines, the molecule ahead of its results:

Row | Molecule | binding (DJ-1 C106DD) | binding (DJ-1 C106A) | binding [1]
8 | hnRNP K (from UniProt P61978 1-463) | binds | binds | –
9 | heterogeneous ribonucleoprotein A1 like 2 (from UniProt Q32P51 1-320) | binds | binds | –
10 | Glyceraldehyde 3-phosphate dehydrogenase (from UniProt P04406 1-335) | binds | binds | binds
11 | hnRNP R (protein, UniProt O43390 1-633) MANQVNGNAVQLKEEEEPMDTSSVTHTEHYKTLIEAGLPQKVAERLDEIFQTGLVAYVDLDERAIDALREFNEEGALSVLQQFKESDLSHVQNKSAFLCGVMKTYRQREKQGSKVQESTKGPDEAKIKALLERTGYTLDVTTGQRKYGGPPPDSVYSGVQPGIGTEVFVGKIPRDLYEDELVPLFEKAGPIWDLRLMMDPLSGQNRGYAFITFCGKEAAQEAVKLCDSYEIRPGKHLGVCISVANNRLFVGSIPKNKTKENILEEFSKVTEGLVDVILYHQPDDKKKNRGFCFLEYEDHKSAAQARRRLMSGKVKVWGNVVTVEWADPVEEPDPEVMAKVKVLFVRNLATTVTEEILEKSFSEFGKLERVKKLKDYAFVHFEDRGAAVKAMDEMNGKEIEGEEIEIVLAKPPDKKRKERQAARQASRSTAYEDYYYHPPPRMPPPIRGRGRGGGRGGYGYPPDYYGYEDYYDDYYGYDYHDYRGGYEDPYYGYDDGYAVRGRGGGRGGRGAPPPPRGRGAPPPRGRAGYSQRGAPLGPPRGSRGGRGGPAQQQRGRGSRGSRGNRGGNVGGKRKADGYNQPDSKRRQTNNQQNWGSQPIAQQPLQQGGDYSGNYGYNNDNQEFYQDTYGQQWK | binds | binds | –
12 | hnRNP L (protein, UniProt P14866 1-589) MSRRLLPRAEKRRRRLEQRQQPDEQRRRSGAMVKMAAAGGGGGGGRYYGGGSEGGRAPKRLKTDNAGDQHGGGGGGGGGAGAAGGGGGGENYDDPHKTPASPVVHIRGLIDGVVEADLVEALQEFGPISYVVVMPKKRQALVEFEDVLGACNAVNYAADNQIYIAGHPAFVNYSTSQKISRPGDSDDSRSVNSVLLFTILNPIYSITTDVLYTICNPCGPVQRIVIFRKNGVQAMVEFDSVQSAQRAKASLNGADIYSGCCTLKIEYAKPTRLNVFKNDQDTWDYTNPNLSGQGDPGSNPNKRQRQPPLLGDHPAEYGGPHGGYHSHYHDEGYGPPPPHYEGRRMGPPVGGHRRGPSRYGPQYGHPPPPPPPPEYGPHADSPVLMVYGLDQSKMNCDRVFNVFCLYGNVEKVKFMKSKPGAAMVEMADGYAVDRAITHLNNNFMFGQKLNVCVSKQPAIMPGQSYGLEDGSCSYKDFSESRNNRFSTPEQAAKNRIQHPSNVLHFFNAPLEVTEENFFEICDELGVKRPSSVKVFSGKSERSSSGLLEWESKSDALETLGFLNHYQMKNPNGPYPYTLKLCFSTAQHAS | binds | binds | –
13 | hnRNP M (protein, UniProt P52272 1-730) MAAGVEAAAEVAATEIKMEEESGAPGVPSGNGAPGPKGEGERPAQNEKRKEKNIKRGGNRFEPYANPTKRYRAFITNIPFDVKWQSLKDLVKEKVGEVTYVELLMDAEGKSRGCAVVEFKMEESMKKAAEVLNKHSLSGRPLKVKEDPDGEHARRAMQKVMATTGGMGMGPGGPGMITIPPSILNNPNIPNEIIHALQAGRLGSTVFVANLDYKVGWKKLKEVFSMAGVVVRADILEDKDGKSRGIGTVTFEQSIEAVQAISMFNGQLLFDRPMHVKMDERALPKGDFFPPERPQQLPHGLGGIGMGLGPGGQPIDANHLNKGIGMGNIGPAGMGMEGIGFGINKMGGMEGPFGGGMENMGRFGSGMNMGRINEILSNALKRGEIIAKQGGGGGGGSVPGIERMGPGIDRLGGAGMERMGAGLGHGMDRVGSEIERMGLVMDRMGSVERMGSGIERMGPLGLDHMASSIERMGQTMERIGSGVERMGAGMGFGLERMAAPIDRVGQTIERMGSGVERMGPAIERMGLSMERMVPAGMGAGLERMGPVMDRMATGLERMGANNLERMGLERMGANSLERMGLERMGANSLERMGPAMGPALGAGIERMGLAMGGGGGASFDRAIEMERGNFGGSFAGSFGGAGGHAPGVARKACQIFVRNLPFDFTWKMLKDKFNECGHVLYADIKMENGKSKGCGVVKFESPEVAERACRMMNGMKLSGREIDVRIDRNA | binds | binds | –

These are yes or no findings as the source states them, for the method shown. In cells and extracts the contact can be indirect. These calls come from enrichment with a bait or labelling near it, and not all partners need be listed.
